Here are results for 18 molecules from patent US20210061908A1.

One test addresses streptavidin (UniProt P22629). Put plainly: ELISA, scFv. (ELISA stands for enzyme-linked immunosorbent assay.)
The target in a further test is T1, IGSF11-hFc (UniProt Q5DX21).
T1 sequence (looked up): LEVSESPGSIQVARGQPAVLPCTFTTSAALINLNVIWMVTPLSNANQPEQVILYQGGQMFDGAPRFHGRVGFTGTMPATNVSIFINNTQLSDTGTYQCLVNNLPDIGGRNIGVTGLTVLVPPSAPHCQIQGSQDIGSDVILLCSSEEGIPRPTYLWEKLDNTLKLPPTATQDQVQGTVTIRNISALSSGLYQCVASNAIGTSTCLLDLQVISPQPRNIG
In words: ELISA, coated IGSF11-hFc, IgG1 format; EC50 grade (# >10 nM, ## 1-10 nM, ### <1 nM).

These are yes or no findings as the source states them, for the method shown. Some results given as binding are weak or reduced against the parent protein; the word gives no strength.

B1: A-034 (scFv format) (scFv, V domains shown)
VH: QMQLVQSGGGLVKPGGSLRLSCAASGFTFSSYTMNWVRQAPGKGLEWVSSISSIGTYIYYADSVKGRFTISRDNAKNSLYLQMNSLRAEDTAVYYCARVLLSGSYYGYFDSWGQGTLVTVSS
VL: QSVLTQPPSVSGAPGQRVTISCTGSSSNIGAGYDVHWYQQLPGTAPKLFIYGNSNRPSGVPDRFSGSKSGTSASLAITGLQAEDEADYYCQSYDSSLSGYVFGTGTKVTVL
B1: in the test with streptavidin, the binding result is “no binding (tested: <0.025 / <0.05 RFU (legend gives both))”.

B2: A-004 (scFv format) (scFv, V domains shown)
VH: EVQLVESGGGLVKPGGSLRLSCAASGFTFSSYSMNWVRQAPGKGLEWVSSISSSSSYIYYADSVKGRFTISRDNAKNSLYLQMNSLRAEDTAVYYCARGQLLWFGESALIDAFDIWGQGTMVTVSS
VL: EIVLTQSPSSLSASVGDRVTITCRASQSISSYLNWYQLKPGKAPKLLIYAASILQSGVPSRFSGSGSGTDFTLTISSLQPEDFAAYYCQQSYSTPRTFGQGTKLEIK
In the case of B2, in the test with streptavidin, the binding result was “no binding (tested: <0.025 / <0.05 RFU (legend gives both))”.

B3: A-014 (scFv format) (scFv, V domains shown)
VH: QVQLVQSGAEVKKPGASVKVSCKASGYTFNDYYIHWVRQAPGQGLEWMGWFNPSTGGANYAQKFQGRVTMTRDTSISTAYLEVSSLRSDDTAVYYCARGNSPDLDYWGQGTLVTVSS
VL: DIQMTQSPDSLTVSLGERATINCKSSQSLLHSSNNKNYLAWYQQRPGQPPKLLIYWASTRQSGVPDRFSGSGSGTDFTLTINSLQADDMAVYYCQQYYTTTPNTFGQGTKLEIK
For the molecule B3, the binding entry with streptavidin is listed as “no binding (tested: <0.025 / <0.05 RFU (legend gives both))”.

B4: A-008 (scFv format) (scFv, V domains shown)
VH: QLQLQESGPGLVKPSETLSLTCTVSGGSISSSGYYWGWIRQPPGKGLEWIGSIYYSGSTYYNPSLKSRVTISVDTSKNQFSLKLSSVTAADTAVYYCARHRVRFGEFDAFDIWGQGTMVTVSS
VL: QAVLTQPPSVSGAPGERVTLSCTGTSSNVGADFDVHWYQQFPGTAPRLLIFGSDNRPSGVPDRFSGSKSGTSASLAITGLQVEDEADYYCQAYDVRLSGWVFGGGTKLTVL
In the case of B4, the binding result in the test with streptavidin is on record as “no binding (tested: <0.025 / <0.05 RFU (legend gives both))”.

B5: A-016 (scFv format) (scFv, V domains shown)
VH: QVQLQESGAEVKKPGASVKVSCKASGYTFTGYYMHWVRQAPGQGLEWMGGIIPIFGTANYAQKFQGRVTITADESTSTAYMELSSLRSEDTAVYYCAGAGMELTRSGAYYYYGMDVWGQGTTVTVSS
VL: QSALTQPASVSGSPGQSITISCTGTSSDIGGYTFVSWYQQHPGKAPKVMIHDVNNRPSGISNRFSGSKSGNTASLTISGLQAEDEADYYCSSVTSTNTYVFGTGTKVTVL
Regarding B5, the binding result with streptavidin is given as “no binding (tested: <0.025 / <0.05 RFU (legend gives both))”.

B6: A-013 (human IgG1 format) (antibody, V domains shown)
VH: EVQLVESGGGLIQPGGSLRLSCAASGFTVSSNYMSWVRQAPGKGLEWVSVIYSGGSTYYADSVKGRFTISRDNSKNTLYLQMNSLRAEDTAVYYCARGNPYYYGDLQVNFDYWGQGTLVTVSS
VL: QAVVTQEPSLTVSPGGTVTLTCASSTGAVTSAYYPNWFQQKPGQAPRALIYSTSNKHSWTPARFSGSLLGGKAALTLSGVQPEDEADYYCLLYYGGAWVFGGGTKLTVL
Turning to B6, the binding entry with IGSF11-hFc is listed as “binds”.

B7: A-002 (scFv format) (scFv, V domains shown)
VH: EVQLVESGGGLIQPGGSLRLSCAASGFTVSSNYMSWVRQAPGKGLEWVSVIYSGGSTYYADSVKGRFTISRDNSKNTLYLQMNSLRAEDTAVYYCARGNPYYYGDLQVNFDYWGQGTLVTVSS
VL: QAVVTQEPSLTVSPGGTVTPTCGSSTGAVTSGNLPNWFQQKPGQAPRALIYSTSNKHSWTPARISGSLLGGKAALTLSGVQPEDEAEYYCLLYYGGAWVFGGGTKLTVL
B7: the binding result with streptavidin is “no binding (tested: <0.025 / <0.05 RFU (legend gives both))”.

B8: A-005 (scFv format) (scFv, V domains shown)
VH: EVQLVESGGGLIQPGGSLRLSCAASGFTVSSNYMSWVRQAPGKGLEWVSVIYSGGSTYYADSVKGRFTISRDNSKNTLYLQMNSLRAEDTAVYYCARGNPYYYGDLQVNFDYWGQGTLVTVSS
VL: QAVVTQEPSLTVSPGETVTLTCASSTGAVTSGYYPNWFQQRPGQAPRALIYSTSNKDSWTPARFSGSLLGGKAALTLSGVQPEDEAEYYCLLYYGGAWVFGGGTKLTVL
For the molecule B8, the binding entry with streptavidin was “no binding (tested: <0.025 / <0.05 RFU (legend gives both))”.

B9: A-012 (human IgG1 format) (antibody, V domains shown)
VH: EVQLLESGGGLIQPGGSLRLSCAVSGFTVSSNYMSWVRQAPGKGLEWVSVIYSGGSTYYADSVKGRFTISRDNSKNTLYLQMNSLRAEDTAVYYCARGNPYYYGDLQVNFDYWGQGTLVTVSS
VL: QAVVTQEPSLTVSPGGTVTLTCASSTGAVTSGYYPNWFQQKPGQAPRALIYSTSNKHSWTPARFSGSLLGGKAALTLSGVQPEDEAEYYCLLYYGGAWVFGGGTKLTVL
In the case of B9, the binding entry with IGSF11-hFc is “binds”.

B10: A-012 (scFv format) (scFv, V domains shown)
VH: EVQLLESGGGLIQPGGSLRLSCAVSGFTVSSNYMSWVRQAPGKGLEWVSVIYSGGSTYYADSVKGRFTISRDNSKNTLYLQMNSLRAEDTAVYYCARGNPYYYGDLQVNFDYWGQGTLVTVSS
VL: QAVVTQEPSLTVSPGGTVTLTCASSTGAVTSGYYPNWFQQKPGQAPRALIYSTSNKHSWTPARFSGSLLGGKAALTLSGVQPEDEAEYYCLLYYGGAWVFGGGTKLTVL
Consider B10, for which, in the test with streptavidin, the binding result is on record as “no binding (tested: <0.025 / <0.05 RFU (legend gives both))”.

B11: A-006 (scFv format) (scFv, V domains shown)
VH: EVQLVESGGGLIQPGGSLRLSCAASGFTVSSNYMSWVRQAPGKGLEWVSVIYSGGSTYYADSVKGRFTISRDNSKNTLYLQMNSLRAEDTAVYYCARGNPYYYGDLQVNFDYWGQGTLVTVSS
VL: QAVVTQEPSLTVSPGGTVTLTCASSTGAVTSGYYPNWFQQKPGQAPRPLIYSTSNKHSWTPARFSGSLLGGKAALTLSGVQPDDEAEYYCLLYYGGDWVFGGGTKLTVL
Turning to B11, in the test with streptavidin, the binding result was “no binding (tested: <0.025 / <0.05 RFU (legend gives both))”.

B12: A-013 (scFv format) (scFv, V domains shown)
VH: EVQLVESGGGLIQPGGSLRLSCAASGFTVSSNYMSWVRQAPGKGLEWVSVIYSGGSTYYADSVKGRFTISRDNSKNTLYLQMNSLRAEDTAVYYCARGNPYYYGDLQVNFDYWGQGTLVTVSS
VL: QAVVTQEPSLTVSPGGTVTLTCASSTGAVTSAYYPNWFQQKPGQAPRALIYSTSNKHSWTPARFSGSLLGGKAALTLSGVQPEDEADYYCLLYYGGAWVFGGGTKLTVL
Take B12: in the test with streptavidin, the binding entry is on record as “no binding (tested: <0.025 / <0.05 RFU (legend gives both))”.

B13: A-035 (scFv format) (scFv, V domains shown)
VH: QVQLVQSGAEVKKPGASVKVSCKASGYTFTGYYMHWVRQAPGQGLEWMGWINPNSGNTGYAQKFQGRVTMTRNTSISTAYMELSSLRSEDTAVYYCARGRLERGYWYFDLWGRGTLVTVSS
VL: NFMLTQPHSVSESPGRTVTISCTRSSGSITSNYVQWYQQRPGSAPTILIYEDKERPSEVPDRFSGSIDISSNSASLTISGLKTEDEADYYCQSYGGTSQGVLFGGGTKVTVL
As for B13, the binding result in the test with streptavidin is “no binding (tested: <0.025 / <0.05 RFU (legend gives both))”.

B14: A-022 (scFv format) (scFv, V domains shown)
VH: EVQLLESGPGLVKPSQTLSLTCTVSGGSISSGGYYWSWIRQHPGKGLEWIGYIYYSGSTYYNPSLKSRVTISVDTSKNQFSLKLSSVTAADTAVYYCARASRSTDYYFDYWGQGTLVTVSS
VL: QPGLTQPPSMSYGLGQTATLTCTGNRNNIGDQGAAWLQQHQGHPPKLLSYRNNNGPSGISERLSASRSGNTASLTISGLQPEDEADYYCSAWDSSLRAWVFGGGTKLTVL
On to B14, for which, in the test with streptavidin, the binding result is “no binding (tested: <0.025 / <0.05 RFU (legend gives both))”.

B15: A-010 (scFv format) (scFv, V domains shown)
VH: QVQLVQSGAEVKKPGASVKVSCKASGYTFTSYGISWVRQAPGQGLEWMGWISAYNGNTNYAQKLQGRVTMTTDTSTSTAYMELRSLRSDDTAVYYCARVPAWSGQFDYWGQGTLVTVSS
VL: QSALTQPASVSGSPGQSITISCTGSSSDVGGYNYVSWYQQYPGKAPKLMIYDVRSRPSGVSNRFSGSKSGNTASLTISGLQAEDEADYYCTSYTSSNTLVIFGGGTKVTVL
With B15, in the test with streptavidin, the binding result is listed as “no binding (tested: <0.025 / <0.05 RFU (legend gives both))”.

B16: A-024 (scFv format) (scFv, V domains shown)
VH: QMQLVQSGAEVKKPGSSVKVSCKASGGTFSSYAISWVRQAPGQGLEWMGWISAYNGNTNYAQKLQGRVTMTTDTSTSTAYMELRSLRSDDTAVYYCASLGSYGYTGAFDIWGQGTMATVSS
VL: QSALTQPASVSGSPGQSITISCTGTSSDVGGYNYVSWYQQHPGKAPKLMIYEVSNRPSGVSNRFSGSKSGNTASLTISGLQAEDEADYYCSSYTSSSTLVVFGGGTKLTVL
Regarding B16, in the test with streptavidin, the binding entry is “no binding (tested: <0.025 / <0.05 RFU (legend gives both))”.

B17: A-021 (scFv format) (scFv, V domains shown)
VH: QVQLVQSGAEVKKPGASVKVSCKASGYTFTSYGISWVRQAPGQGLEWMGWISAYNGNTNYAQKLQGRVTMTTDTSTSTAYMELRSLRSDDTAVYYCARVPAWSGQFDYWGQGTLVTVSS
VL: QSALTQPASVSGSPGQSITISCTGTSSDVGGYNYVSWYQQHPGKAPKLMIYEVTNRPSGVSDRFSGSKSANTASLTISELQAEDEAVYYCNSYTSGPTYVLFGGGTQLTVL
As to B17, the binding result with streptavidin was “no binding (tested: <0.025 / <0.05 RFU (legend gives both))”.

B18: A-001 (scFv format) (scFv, V domains shown)
VH: EVQLVESGGGLVKPGGSLRLSCAASGFTFSSYSMNWVRQAPGKGLEWVSSISSSSSYIYYADSVKGRFTISRDNAKNSLYLQMNSLRAEDTAVYYCVRSIIVQALGITSVFDIWGQGTMVTVSS
VL: AIRLTQSPSSLSASVGDRVTISCRASQIISNHLNWYQQKPGKAPKLLIYAASRLQTGVPSRFSGSGSETDYTLTISSLQPEDFATYYCQQSYSNPRTFGHGTKVEIK
Turning to B18, the binding entry with streptavidin is on record as “no binding (tested: <0.025 / <0.05 RFU (legend gives both))”.
